# Laboratory results taken from PubChem BioAssay AID1671190 (National Center for Advancing Translational Sciences (NCATS), 2021).
# Sequences of proteins named here, by UniProt entry; tags and fusion partners are left off. A change or cut given only in a name is not applied to a line headed by its entry.
# UniProt P18054: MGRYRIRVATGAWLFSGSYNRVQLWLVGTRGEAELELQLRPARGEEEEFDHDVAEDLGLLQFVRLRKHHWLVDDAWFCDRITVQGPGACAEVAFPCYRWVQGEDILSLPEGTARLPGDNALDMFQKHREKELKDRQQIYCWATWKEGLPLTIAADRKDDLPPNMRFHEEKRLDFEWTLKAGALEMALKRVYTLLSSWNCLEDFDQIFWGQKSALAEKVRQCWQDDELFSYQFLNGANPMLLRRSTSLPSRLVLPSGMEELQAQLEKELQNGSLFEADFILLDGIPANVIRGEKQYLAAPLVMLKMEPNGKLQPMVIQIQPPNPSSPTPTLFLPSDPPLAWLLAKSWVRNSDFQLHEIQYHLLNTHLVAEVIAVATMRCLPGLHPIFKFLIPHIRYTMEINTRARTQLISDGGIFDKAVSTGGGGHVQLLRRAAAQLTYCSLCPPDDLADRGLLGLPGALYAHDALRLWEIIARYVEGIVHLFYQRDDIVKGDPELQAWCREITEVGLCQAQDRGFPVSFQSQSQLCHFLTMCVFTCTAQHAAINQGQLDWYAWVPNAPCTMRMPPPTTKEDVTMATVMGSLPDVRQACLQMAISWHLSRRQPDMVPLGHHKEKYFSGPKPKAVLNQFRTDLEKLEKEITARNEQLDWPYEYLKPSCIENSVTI
# About 6,100 (1.1%) of roughly 580,000 compounds were called active. The shares of active, inactive and inconclusive entries below differ from those in the screen. The call rests on the fitted dose curve; in most records, active means well fitted inhibition curve with a large enough effect; inconclusive means small, poorly fitted or top-dose-only effect, or another doubt; inactive means no such curve, though single readings can be large or run the other way. Potencies of inconclusive entries are doubtful fits and often do not repeat.
# Target: Polyunsaturated fatty acid lipoxygenase ALOX12 (Homo sapiens) (UniProt P18054)
# Assay: Primary qHTS assay for inhibitors of human arachidonate 12S-lipoxygenase (ALOX12): Round 2
# Settings: purified 12hLO, xylenol orange hydroperoxide absorbance; activity change, negative = inhibition: at 108 µM (top of the series) unless noted
# Method in brief: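 Purified human 12hLO at 150 nM in 25 mM Hepes, 0.01% Triton X-100, pH 7.0, preincubated 15 min at room temperature with compound. Reaction started with 40 uM arachidonic acid, 30 min at room temperature. Hydroperoxide measured by Fe-xylenol orange, 573/405 nm absorbance ratio.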
# On the % scale 0 is the no-effect control and ±100 the full control effect; potency means the concentration at half of the fitted maximal effect.
Compound,Potency,"activity change, negative = inhibition"
NSc1nc(N)c2nc(-c3ccccc3)c(-c3ccccc3)nc2n1,"inconclusive: 100 µM [inhibitor, partial curve, poor fit]",–
CCN(CC)c1ccc(NC(=S)NC(=O)C2CCC2)cc1,"inconclusive: 44.7 µM [inhibitor, partial curve, poor fit]",–
Cc1ccc(NC(=O)c2ccc(-c3cc(Cl)ccc3Cl)o2)c(C)c1,"inconclusive: 44.7 µM [inhibitor, partial curve, poor fit]",–
CCCCNC(=O)c1sc2ncnc(N3CCc4ccccc4C3)c2c1C,–,inactive: -11.6%
CCOC(=O)C(=CNc1cc(OC)ccc1-n1cccc1)C(=O)OCC,–,inactive: 25.8%
Cc1nc2nc(-c3ccco3)[nH]n2c(=O)c1Cc1ccccc1,–,inactive: 0%
CCc1ccc(CNC(=O)c2cc3ccccn3n2)cc1,–,inactive: -28.3%
CN(C)Cc1ccccc1-c1nccc(NC2CC2)n1,"inconclusive: 10 µM [inhibitor, full curve, poor fit]",–
CCOC(=O)c1ccc(NC(=O)Cn2nnc(-c3ccccc3F)n2)cc1,–,inactive: 20.6%
O=C(O)/C=C/c1ccc(Br)o1,"inconclusive: 141 µM [inhibitor, partial curve, poor fit]",–
CCCc1nc2ccccc2n1CC(O)COc1ccc(C(=O)OC)cc1 (stereo unspecified),–,inactive: 1.09%
O=C(CCc1ncc(-c2c(F)cccc2F)o1)Nc1ccccc1F,–,inactive: -0.805%
Cc1ccc(CN(CC(=O)NC2CCCCC2)C(=O)c2csnn2)cc1,"inconclusive: 39.8 µM [inhibitor, partial curve, poor fit]",–
Cn1cc2c(C(F)F)cc(=O)n(CCC(=O)O)c2n1,"inconclusive: 0.355 µM [inhibitor, full curve, poor fit]",–
COc1cc(/C=C/C(=O)c2ccc(C3CCCCC3)cc2)cc(Br)c1O,"inconclusive: 50.1 µM [inhibitor, full curve, poor fit]",–
CCC1CCCCN1S(=O)(=O)c1ccc(C(=O)Nc2sc3c(c2C(N)=O)CCC3)cc1 (stereo unspecified),"inconclusive: 89.1 µM [inhibitor, partial curve, poor fit]",–
CCn1c2ccccc2c2cc(NC(=O)COC(=O)c3cc(OC)c(OC)cc3OC)ccc21,–,inactive: -6.73%
CCCCN(C)C(=O)c1cn(CC)c2nc(C)ccc2c1=O,–,inactive: 4.21%
COc1ccc(C2C(C(=O)Nc3ccc(Cl)cc3)=C(C)Nc3nc(SCc4cccc(C)c4)nn32)cc1OC (stereo unspecified),"inconclusive: 100 µM [inhibitor, partial curve, poor fit]",–
Cc1nc2nc(N(Cc3ccc(F)cc3)C(=O)c3ccco3)[nH]n2c(=O)c1C,–,inactive: 12.6%
COc1ccc(C(=O)Oc2ccc(/C=N/Nc3ccc(Cl)c(C(=O)O)c3)cc2OC)cc1,"inconclusive: 50.1 µM [inhibitor, partial curve, poor fit]",–
CCCCc1ccc(NC(=S)Nc2cccnc2)cc1,"inconclusive: 56.2 µM [inhibitor, partial curve, poor fit]",–
O=C1OCCN/C1=C\C(=O)c1ccccc1,"inconclusive: 35.5 µM [inhibitor, partial curve, poor fit]",–

Compound,Potency,"activity change, negative = inhibition"
COc1ccc(NC(=O)Cn2c(C(=O)c3ccc(Cl)cc3)nc3ccccc32)cc1OC,"inconclusive: 126 µM [inhibitor, partial curve, poor fit]",–
O=C(c1ccccc1)N1CCN(C2CCCCC2)CC1,"inconclusive: 0.398 µM [inhibitor, full curve, poor fit]",–
COc1ccc(C(CC(=O)N2CCCC2)c2cn(Cc3ccccc3)c3ccccc23)cc1OC (stereo unspecified),"inconclusive: 44.7 µM [inhibitor, partial curve]",–
COc1ccccc1CNc1nc(NCCN2CCNC2=O)c2sccc2n1,–,inactive: 2.87%
CSc1cccc(NC(=O)Cn2c(N3CCN(c4ccccc4)CC3)nc(C)cc2=O)c1,"inconclusive: 50.1 µM [inhibitor, partial curve]",–
COc1ccccc1/C=C1\C(=O)Nc2ccccc21,"inconclusive: 0.562 µM [inhibitor, full curve, poor fit]",–
O=C(Nc1nc(-c2ccc3ccccc3c2)cs1)c1ccc[n+]([O-])c1,–,inactive: -8.1%
CC(C)NC(=O)[C@@H]1C[C@H](N)CN1C(=O)c1ccccc1-c1ncc[nH]1,–,inactive: 44.9%
Cc1ccc2nc(NC(=O)CSc3nccn3-c3ccc(Cl)cc3)sc2c1,–,inactive: 5.52%
O=C1N(Cc2ccc(F)cc2)C[C@H]2CN(Cc3cnc4ccccc4c3)CCN12,–,inactive: -0.0913% [at 176 µM]
CC(C)CN1C(=O)CO[C@H](c2ccc(NC(=O)C3CCCC3)cc2)[C@H]1CO,–,inactive: 19% [at 176 µM]
CCN(CCCc1ccccc1)CCCc1ccccc1,"inconclusive: 7.08 µM [inhibitor, full curve]",–
O=C(CCN1CCN2CCCC2C1)N1c2ccccc2Sc2ccc(Cl)cc21 (stereo unspecified),"inconclusive: 9.89 µM [inhibitor, partial curve, poor fit]",–
Cc1[nH]c(=O)[nH]c(=O)c1S(=O)(=O)N1c2ccc(F)cc2CCC1C (stereo unspecified),"inconclusive: 50.1 µM [inhibitor, partial curve, poor fit]",–
CC1CCC(C(C)C)C(OC(=O)C2=C3c4ccccc4S(=O)(=O)N3CC2)C1 (stereo unspecified),"inconclusive: 39.8 µM [inhibitor, partial curve, poor fit]",–
O=C(c1ccc(F)cc1Cl)N1C[C@@H](CO)[C@H](c2ccccn2)C1,–,inactive: 19.5%
COc1ccc(NC(=O)Cn2c(Nc3ccc(F)c(C)c3)nc(C)cc2=O)cc1OC,"inconclusive: 31.6 µM [inhibitor, partial curve, poor fit]",–
C[C@@H](C1=C(CCN(C)C)Cc2ccccc21)c1ccccn1,inactive,–
COc1ccc(C(C)=O)cc1COC(=O)CNC(=O)c1ccccc1F,–,inactive: 12%
COc1ccccc1-n1cnnc1SCC(=O)c1ccc2c(c1)CCCC2,–,inactive: 12.8%
COc1ccc(NC(=O)Nc2cccc(-c3ccc(N4CCOCC4)nn3)c2)cc1Cl,"inconclusive: 89.1 µM [inhibitor, single point]",–
Cc1ccc(Cc2sc(N)nc2C)cc1,"inconclusive: 7.94 µM [inhibitor, full curve, poor fit]",–

# Part of the list above, with bars between the fields:
Compound | Potency | activity change, negative = inhibition
CCN(CC)c1ccc(NC(=S)NC(=O)C2CCC2)cc1 | inconclusive: 44.7 µM [inhibitor, partial curve, poor fit] | –
Cc1ccc(NC(=O)c2ccc(-c3cc(Cl)ccc3Cl)o2)c(C)c1 | inconclusive: 44.7 µM [inhibitor, partial curve, poor fit] | –
CCCCNC(=O)c1sc2ncnc(N3CCc4ccccc4C3)c2c1C | – | inactive: -11.6%
